Laboratory results from the supplement of paper PMC10849652.
The other results are listed elsewhere or left out.

Amino acid sequences for entries named in this document (tags omitted). A change or cut given only in a name is not applied to a line headed by its entry.
UniProt P07108: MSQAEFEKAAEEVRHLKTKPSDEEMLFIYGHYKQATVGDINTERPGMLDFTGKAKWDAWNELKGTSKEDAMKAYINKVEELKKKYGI
UniProt P51397: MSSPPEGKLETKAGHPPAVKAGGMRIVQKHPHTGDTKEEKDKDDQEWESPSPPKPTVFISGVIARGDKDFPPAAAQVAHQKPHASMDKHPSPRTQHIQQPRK
UniProt P00387: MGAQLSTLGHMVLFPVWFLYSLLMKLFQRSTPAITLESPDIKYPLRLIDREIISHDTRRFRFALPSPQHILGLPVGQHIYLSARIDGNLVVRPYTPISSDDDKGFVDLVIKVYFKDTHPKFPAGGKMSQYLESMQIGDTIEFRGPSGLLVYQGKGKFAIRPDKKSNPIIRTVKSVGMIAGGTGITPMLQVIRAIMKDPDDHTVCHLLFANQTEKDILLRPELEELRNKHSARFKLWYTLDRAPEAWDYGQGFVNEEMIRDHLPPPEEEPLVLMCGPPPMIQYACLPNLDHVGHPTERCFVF
UniProt Q8IZD4: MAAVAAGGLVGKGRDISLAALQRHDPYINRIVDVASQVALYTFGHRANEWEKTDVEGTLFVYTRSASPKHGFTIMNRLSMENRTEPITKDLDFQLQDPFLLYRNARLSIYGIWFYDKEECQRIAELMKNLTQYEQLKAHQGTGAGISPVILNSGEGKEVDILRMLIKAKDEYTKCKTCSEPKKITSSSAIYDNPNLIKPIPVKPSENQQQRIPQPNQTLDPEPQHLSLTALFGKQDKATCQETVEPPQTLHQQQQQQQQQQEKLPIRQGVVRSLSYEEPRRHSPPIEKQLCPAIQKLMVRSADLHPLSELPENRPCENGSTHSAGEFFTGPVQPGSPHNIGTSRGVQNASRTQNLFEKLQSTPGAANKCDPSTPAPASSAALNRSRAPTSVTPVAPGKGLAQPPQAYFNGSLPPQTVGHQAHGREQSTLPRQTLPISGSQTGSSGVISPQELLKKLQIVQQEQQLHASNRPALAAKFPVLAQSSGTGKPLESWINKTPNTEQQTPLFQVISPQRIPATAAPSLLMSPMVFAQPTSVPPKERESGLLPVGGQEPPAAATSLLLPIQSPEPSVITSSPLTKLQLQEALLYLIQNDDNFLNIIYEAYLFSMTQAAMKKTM
UniProt P09668: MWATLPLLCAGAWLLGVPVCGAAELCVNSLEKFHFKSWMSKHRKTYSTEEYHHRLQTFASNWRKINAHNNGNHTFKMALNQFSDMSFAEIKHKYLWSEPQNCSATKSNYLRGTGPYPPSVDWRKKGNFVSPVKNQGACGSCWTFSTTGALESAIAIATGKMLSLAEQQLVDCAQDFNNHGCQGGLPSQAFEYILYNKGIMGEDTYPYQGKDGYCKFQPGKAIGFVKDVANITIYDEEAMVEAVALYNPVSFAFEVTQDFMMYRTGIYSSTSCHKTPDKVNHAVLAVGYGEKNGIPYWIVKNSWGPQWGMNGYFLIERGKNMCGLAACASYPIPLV
UniProt P61962: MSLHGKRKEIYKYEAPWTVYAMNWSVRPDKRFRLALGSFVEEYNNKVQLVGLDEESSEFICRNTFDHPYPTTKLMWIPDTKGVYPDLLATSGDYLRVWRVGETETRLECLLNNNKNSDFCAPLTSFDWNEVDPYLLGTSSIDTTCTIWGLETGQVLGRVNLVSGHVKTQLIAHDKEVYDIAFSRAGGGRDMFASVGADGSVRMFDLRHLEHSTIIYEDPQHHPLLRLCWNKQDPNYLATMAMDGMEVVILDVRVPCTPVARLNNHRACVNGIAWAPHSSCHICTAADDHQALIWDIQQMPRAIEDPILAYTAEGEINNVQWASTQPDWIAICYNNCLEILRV
UniProt Q93034, whole entry, looked up: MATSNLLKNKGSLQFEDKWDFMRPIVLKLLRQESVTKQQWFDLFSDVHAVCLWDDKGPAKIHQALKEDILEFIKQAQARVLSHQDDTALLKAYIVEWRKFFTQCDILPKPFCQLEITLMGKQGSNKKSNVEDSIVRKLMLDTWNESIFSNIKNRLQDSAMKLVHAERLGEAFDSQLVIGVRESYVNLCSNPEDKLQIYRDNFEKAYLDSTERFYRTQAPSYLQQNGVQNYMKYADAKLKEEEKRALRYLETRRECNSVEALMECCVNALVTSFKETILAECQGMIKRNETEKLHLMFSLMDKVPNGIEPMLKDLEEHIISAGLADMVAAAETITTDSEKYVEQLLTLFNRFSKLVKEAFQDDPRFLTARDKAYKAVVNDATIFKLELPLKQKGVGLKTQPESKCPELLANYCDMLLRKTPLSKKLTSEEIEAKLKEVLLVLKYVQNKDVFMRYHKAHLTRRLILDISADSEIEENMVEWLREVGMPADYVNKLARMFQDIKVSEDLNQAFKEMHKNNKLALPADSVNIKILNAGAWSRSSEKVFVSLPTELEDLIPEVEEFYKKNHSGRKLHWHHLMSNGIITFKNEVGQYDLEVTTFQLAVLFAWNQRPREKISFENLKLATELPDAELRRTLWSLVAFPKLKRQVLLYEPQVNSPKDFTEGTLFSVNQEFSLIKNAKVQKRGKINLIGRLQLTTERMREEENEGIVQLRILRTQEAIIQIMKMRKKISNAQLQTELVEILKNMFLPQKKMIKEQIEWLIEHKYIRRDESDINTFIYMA
UniProt Q14203, whole entry, looked up: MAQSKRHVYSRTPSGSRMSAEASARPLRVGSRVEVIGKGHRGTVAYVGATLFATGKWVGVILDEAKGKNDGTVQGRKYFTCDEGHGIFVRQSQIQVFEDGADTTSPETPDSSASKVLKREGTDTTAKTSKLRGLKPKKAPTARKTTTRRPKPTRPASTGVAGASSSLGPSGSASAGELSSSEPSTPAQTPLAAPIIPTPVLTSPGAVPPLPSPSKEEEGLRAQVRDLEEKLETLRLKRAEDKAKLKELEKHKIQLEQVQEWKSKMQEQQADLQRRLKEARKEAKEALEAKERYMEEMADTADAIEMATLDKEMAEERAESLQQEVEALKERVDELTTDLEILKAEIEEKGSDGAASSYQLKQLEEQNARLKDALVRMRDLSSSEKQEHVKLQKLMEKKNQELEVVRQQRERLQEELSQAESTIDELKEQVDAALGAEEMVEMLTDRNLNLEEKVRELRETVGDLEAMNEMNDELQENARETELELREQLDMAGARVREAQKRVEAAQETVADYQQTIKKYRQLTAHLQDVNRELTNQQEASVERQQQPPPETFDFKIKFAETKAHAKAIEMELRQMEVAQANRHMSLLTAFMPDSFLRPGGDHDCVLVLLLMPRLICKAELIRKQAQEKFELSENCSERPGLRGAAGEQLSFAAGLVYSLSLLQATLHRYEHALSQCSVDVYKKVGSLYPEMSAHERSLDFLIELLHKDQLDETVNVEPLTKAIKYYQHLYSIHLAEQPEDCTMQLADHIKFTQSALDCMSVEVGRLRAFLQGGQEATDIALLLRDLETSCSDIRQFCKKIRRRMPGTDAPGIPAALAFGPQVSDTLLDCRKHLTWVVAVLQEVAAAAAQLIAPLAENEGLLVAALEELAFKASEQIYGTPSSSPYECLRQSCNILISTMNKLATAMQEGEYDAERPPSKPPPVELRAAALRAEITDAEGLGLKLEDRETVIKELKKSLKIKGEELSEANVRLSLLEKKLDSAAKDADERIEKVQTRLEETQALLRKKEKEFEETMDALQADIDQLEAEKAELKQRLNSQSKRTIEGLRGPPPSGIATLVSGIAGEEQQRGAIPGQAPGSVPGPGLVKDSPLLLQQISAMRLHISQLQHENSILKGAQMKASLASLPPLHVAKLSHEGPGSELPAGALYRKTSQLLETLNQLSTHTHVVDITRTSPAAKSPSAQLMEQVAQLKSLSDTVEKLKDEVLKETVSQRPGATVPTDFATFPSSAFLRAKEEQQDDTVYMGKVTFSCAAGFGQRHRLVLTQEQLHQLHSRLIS
UniProt Q9UHQ9: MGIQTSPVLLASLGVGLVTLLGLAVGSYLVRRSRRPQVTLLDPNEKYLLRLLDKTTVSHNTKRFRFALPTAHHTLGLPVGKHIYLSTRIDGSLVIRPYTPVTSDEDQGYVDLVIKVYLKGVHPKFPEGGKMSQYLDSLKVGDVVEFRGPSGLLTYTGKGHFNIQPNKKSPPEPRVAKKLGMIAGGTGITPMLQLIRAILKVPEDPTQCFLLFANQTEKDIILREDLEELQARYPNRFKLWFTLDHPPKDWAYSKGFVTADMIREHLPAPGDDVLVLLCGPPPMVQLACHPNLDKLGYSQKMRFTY
UniProt P08574: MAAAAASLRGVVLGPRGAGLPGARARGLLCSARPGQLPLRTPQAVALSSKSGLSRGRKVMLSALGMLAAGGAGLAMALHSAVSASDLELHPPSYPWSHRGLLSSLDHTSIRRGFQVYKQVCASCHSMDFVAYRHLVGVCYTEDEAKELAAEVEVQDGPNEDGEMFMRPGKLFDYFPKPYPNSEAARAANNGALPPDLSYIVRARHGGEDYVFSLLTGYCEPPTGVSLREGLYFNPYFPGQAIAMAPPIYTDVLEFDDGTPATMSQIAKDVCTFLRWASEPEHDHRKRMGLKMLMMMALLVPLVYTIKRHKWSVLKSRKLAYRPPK
UniProt Q13618, whole entry, looked up: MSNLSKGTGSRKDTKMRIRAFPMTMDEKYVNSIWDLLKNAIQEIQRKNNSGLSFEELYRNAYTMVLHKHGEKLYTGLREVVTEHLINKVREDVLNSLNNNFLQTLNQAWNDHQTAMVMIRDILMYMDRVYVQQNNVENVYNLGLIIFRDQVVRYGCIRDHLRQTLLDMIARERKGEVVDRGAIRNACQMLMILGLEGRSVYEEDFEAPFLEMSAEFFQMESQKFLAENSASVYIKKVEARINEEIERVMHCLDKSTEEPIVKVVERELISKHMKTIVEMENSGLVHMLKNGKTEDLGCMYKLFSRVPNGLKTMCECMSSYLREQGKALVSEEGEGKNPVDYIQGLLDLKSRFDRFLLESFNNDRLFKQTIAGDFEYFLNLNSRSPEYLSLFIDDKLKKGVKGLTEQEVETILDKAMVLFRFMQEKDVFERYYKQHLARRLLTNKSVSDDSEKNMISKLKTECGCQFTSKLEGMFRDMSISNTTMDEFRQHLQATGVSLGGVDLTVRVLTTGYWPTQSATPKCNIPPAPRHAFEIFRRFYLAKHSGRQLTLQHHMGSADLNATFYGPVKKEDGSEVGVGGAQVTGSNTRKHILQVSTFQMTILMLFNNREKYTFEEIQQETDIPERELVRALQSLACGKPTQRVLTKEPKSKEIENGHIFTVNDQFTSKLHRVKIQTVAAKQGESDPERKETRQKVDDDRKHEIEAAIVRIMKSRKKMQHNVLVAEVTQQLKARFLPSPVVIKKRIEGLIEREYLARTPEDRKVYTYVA
UniProt O75935, whole entry, looked up: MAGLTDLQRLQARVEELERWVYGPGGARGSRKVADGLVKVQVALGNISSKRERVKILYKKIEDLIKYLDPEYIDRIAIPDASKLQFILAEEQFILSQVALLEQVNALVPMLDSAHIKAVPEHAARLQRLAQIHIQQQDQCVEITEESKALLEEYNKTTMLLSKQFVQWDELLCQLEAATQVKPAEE
UniProt Q9NXF7, whole entry, looked up: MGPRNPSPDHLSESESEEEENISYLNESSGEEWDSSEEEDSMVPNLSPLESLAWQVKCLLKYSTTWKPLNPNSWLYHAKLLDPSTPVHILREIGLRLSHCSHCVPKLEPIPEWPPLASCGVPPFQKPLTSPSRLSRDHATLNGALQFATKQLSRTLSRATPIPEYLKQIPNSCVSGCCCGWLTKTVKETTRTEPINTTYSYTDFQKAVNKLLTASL
UniProt Q9NPI6: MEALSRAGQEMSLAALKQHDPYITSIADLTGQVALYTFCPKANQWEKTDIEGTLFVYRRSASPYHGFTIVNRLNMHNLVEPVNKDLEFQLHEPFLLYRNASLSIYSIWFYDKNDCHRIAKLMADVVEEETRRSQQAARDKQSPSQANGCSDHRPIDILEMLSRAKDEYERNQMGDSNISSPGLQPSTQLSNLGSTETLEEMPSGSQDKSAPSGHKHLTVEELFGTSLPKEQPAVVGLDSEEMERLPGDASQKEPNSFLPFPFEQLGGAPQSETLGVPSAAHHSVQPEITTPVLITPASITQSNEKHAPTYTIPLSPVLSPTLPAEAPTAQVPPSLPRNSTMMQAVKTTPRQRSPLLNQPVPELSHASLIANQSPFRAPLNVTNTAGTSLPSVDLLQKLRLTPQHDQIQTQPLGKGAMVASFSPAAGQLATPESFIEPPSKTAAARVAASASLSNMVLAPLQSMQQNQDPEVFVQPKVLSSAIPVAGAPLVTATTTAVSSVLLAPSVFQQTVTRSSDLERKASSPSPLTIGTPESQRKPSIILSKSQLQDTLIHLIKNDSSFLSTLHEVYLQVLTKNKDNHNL

Experiments:
Experiment in all cases: log2 fold change, soluble protein after heating vs DMSO (PISA); higher = thermal stabilisation; K562 cells, 10 uM, 30 min; active = over 0.2 and 3.5 SD of the protein, either way, in both replicates (recomputed)
bafetinib = compound: Cc1ccc(NC(=O)c2ccc(CN3CC[C@H](N(C)C)C3)c(C(F)(F)F)c2)cc1Nc1nccc(-c2cncnc2)n1 [bafetinib]
Procedure, shortened: (§1)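 Quantification of soluble protein used TMTpro 16plex LC-MS/MS, with channel sums equalised. Samples were the supernatant after 21,000xg for 90 min of pooled aliquots from K562 cells (2×10^6 cells/mL) treated with 10 μM compound for 30 min, heated for 3 min over 48°C-58°C, and extracted in PBS with 0.5% NP-40 at 4°C. Values, from duplicates, describe thermal stability against control samples on a log2 fold-change scale.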

[1] = compound: Cc1cccc(CC(=O)N2CCc3c2ccc(-c2cn(C)c4ncnc(N)c24)c3F)n1
Procedure, shortened: as §1

nilotinib = compound: Cc1cn(-c2cc(NC(=O)c3ccc(C)c(Nc4nccc(-c5cccnc5)n4)c3)cc(C(F)(F)F)c2)cn1 [nilotinib]
Procedure, shortened: as §1

[2] = compound: Cc1nc(Nc2n[nH]c3c2CN(C(=O)N[C@H](CN(C)C)c2ccccc2)C3(C)C)c2sccc2n1
Procedure, shortened: as §1

dasatinib = compound: Cc1nc(Nc2ncc(C(=O)Nc3c(C)cccc3Cl)s2)cc(N2CCN(CCO)CC2)n1 [dasatinib]
Procedure, shortened: as §1

[3] = compound: Cc1ncc(-c2ccnc(Nc3ccc(S(C)(=O)=O)cc3)n2)n1C(C)C
Procedure, shortened: as §1

[4] = compound: Cn1cc(-c2ccc3c(c2)CCN3C(=O)Cc2cccc(C(F)(F)F)c2)c2c(N)ncnc21
Procedure, shortened: as §1

[5] = compound: Cn1cc(-c2ccc3nnc(C(F)(F)c4ccc5ncccc5c4)n3n2)cn1
Procedure, shortened: as §1

tipifarnib = compound: Cn1cncc1[C@@](N)(c1ccc(Cl)cc1)c1ccc2c(c1)c(-c1cccc(Cl)c1)cc(=O)n2C [tipifarnib]
Procedure, shortened: as §1

mubritinib = compound: FC(F)(F)c1ccc(/C=C/c2nc(COc3ccc(CCCCn4ccnn4)cc3)co2)cc1 [mubritinib]
Procedure, shortened: as §1

[6] = compound: NC(=O)Nc1cc(-c2cccc(F)c2)sc1C(=O)N[C@H]1CCCNC1
Procedure, shortened: as §1

[7] = compound: NC(=O)c1cnc(N[C@@H]2CCCC[C@@H]2N)nc1Nc1cccc(-n2nccn2)c1
Procedure, shortened: as §1

[8] = compound: NC1(c2ccc(-c3nc4ccn5c(=O)[nH]nc5c4cc3-c3ccccc3)cc2)CCC1
Procedure, shortened: as §1

[9] = compound: NCC(=O)Nc1ccc(-n2nc(C(F)(F)F)cc2-c2ccc3c(ccc4ccccc43)c2)cc1
Procedure, shortened: as §1

entinostat = compound: Nc1ccccc1NC(=O)c1ccc(CNC(=O)OCc2cccnc2)cc1 [entinostat]
Procedure, shortened: as §1

vorinostat = compound: O=C(CCCCCCC(=O)Nc1ccccc1)NO [vorinostat]
Procedure, shortened: as §1

citarinostat = compound: O=C(CCCCCCNC(=O)c1cnc(N(c2ccccc2)c2ccccc2Cl)nc1)NO [citarinostat]
Procedure, shortened: as §1

silmitasertib = compound: O=C(O)c1ccc2c(c1)nc(Nc1cccc(Cl)c1)c1ccncc12 [silmitasertib]
Procedure, shortened: as §1

[10] = compound: O=C1NC(=O)C(c2cnc3ccccn23)=C1c1cn2c3c(cc(F)cc13)CN(C(=O)N1CCCCC1)CC2
Procedure, shortened: as §1

[11] = compound: c1cc(OCCN2CCCCC2)cc(-c2n[nH]c3ccc(-c4nnc[nH]4)cc23)c1
Procedure, shortened: as §1

Target	log2 fold change (bafetinib)	log2 fold change [1]	log2 fold change (nilotinib)	log2 fold change [2]	log2 fold change (dasatinib)	log2 fold change [3]	log2 fold change [4]	log2 fold change [5]	log2 fold change (tipifarnib)	log2 fold change (mubritinib)	log2 fold change [6]	log2 fold change [7]	log2 fold change [8]	log2 fold change [9]	log2 fold change (entinostat)	log2 fold change (vorinostat)	log2 fold change (citarinostat)	log2 fold change (silmitasertib)	log2 fold change [10]	log2 fold change [11]
DBI isoform 5 (UniProt P07108)	inactive: -0.065	inactive: -0.126	inactive: 0.051	inactive: -0.016	inactive: 0.113	inactive: 0	inactive: 0.071	inactive: 0.176	inactive: 0.051	inactive: 0.022	inactive: -0.023	inactive: 0.075	inactive: 0.023	inactive: -0.026	inactive: 0.071	inactive: -0.176	inactive: -0.002	inactive: 0.003	inactive: -0.048	inactive: -0.058
DAP (UniProt P51397)	inactive: 0.007	inactive: -0.033	inactive: 0.016	inactive: -0.017	inactive: 0.025	inactive: 0.05	inactive: -0.028	inactive: 0.005	inactive: 0.012	inactive: 0.032	inactive: -0.044	inactive: 0.049	inactive: 0.013	inactive: 0.05	inactive: -0.005	inactive: -0.058	inactive: -0.018	inactive: -0.013	inactive: 0.017	inactive: -0.036
CYB5R3 isoform 3 (UniProt P00387)	inactive: -0.047	inactive: -0.038	inactive: -0.013	inactive: 0.001	inactive: 0.019	inactive: -0.028	inactive: 0.008	inactive: 0.017	inactive: -0.011	inactive: 0.031	inactive: -0.045	inactive: -0.046	inactive: -0.02	inactive: -0.053	inactive: 0	inactive: -0.009	inactive: -0.013	inactive: -0.015	inactive: -0.027	inactive: -0.048
DCP1B (UniProt Q8IZD4)	inactive: 0.048																			
CTSH (UniProt P09668)	inactive: -0.071	inactive: -0.034	inactive: 0.166	inactive: 0.03	inactive: 0.084	inactive: -0.041	inactive: 0.055	inactive: 0.056	inactive: 0.09	inactive: -0.063	inactive: 0.012	inactive: 0.029	inactive: 0.032	inactive: 0.04	inactive: -0.002	inactive: -0.01	inactive: -0.02	inactive: 0.005	inactive: 0.022	inactive: 0.197
DCAF7 (UniProt P61962)	inactive: 0.009	inactive: 0.004	inactive: -0.06	inactive: -0.005	inactive: -0.048	inactive: -0.053	inactive: -0.108	inactive: 0.032	inactive: -0.018	inactive: 0.017	inactive: -0.029	inactive: -0.016	inactive: -0.091	inactive: -0.088	inactive: 0.034	inactive: 0.016	inactive: 0.018	inactive: -0.154	inactive: -0.078	inactive: -0.082
CUL5 (UniProt Q93034)	inactive: -0.032	inactive: -0.003	inactive: -0.009	inactive: -0.006	inactive: 0.028	inactive: 0.012	inactive: 0.044	inactive: 0.031	inactive: -0.02	inactive: 0.033	inactive: 0.035	inactive: -0.031	inactive: -0.043	inactive: -0.001	inactive: -0.018	inactive: -0.001	inactive: 0.041	inactive: -0.011	inactive: -0.016	inactive: -0.016
DCTN1 isoform 4 (UniProt Q14203)	inactive: 0.057	inactive: 0.037	inactive: -0.052	inactive: -0.052	inactive: -0.256	inactive: -0.018	inactive: 0.003	inactive: -0.015	inactive: -0.054	inactive: 0.038	inactive: 0.002	inactive: -0.052	inactive: -0.033	inactive: 0.019	inactive: 0.049	inactive: 0.029	inactive: 0.007	inactive: 0.046	inactive: 0.081	inactive: -0.089
CYB5R1 (UniProt Q9UHQ9)	inactive: -0.041	inactive: -0.051	inactive: -0.02	inactive: 0.009	inactive: -0.023	inactive: -0.013	inactive: 0.017	inactive: 0.02	inactive: 0.003	inactive: 0.014	inactive: -0.022	inactive: -0.044	inactive: -0.01	inactive: -0.068	inactive: -0.033	inactive: 0.007	inactive: -0.009	inactive: -0.012	inactive: -0.028	inactive: -0.035
CYC1 (UniProt P08574)	inactive: -0.031	inactive: -0.019	inactive: -0.01	inactive: 0.094	inactive: 0.02	inactive: -0.027	inactive: 0.024	inactive: -0.003	inactive: -0.075	inactive: -0.024	inactive: 0.032	inactive: -0.03	inactive: 0.012	inactive: -0.006	inactive: -0.005	inactive: -0.032	inactive: 0.021	inactive: -0.01	inactive: -0.003	inactive: -0.081
DBR1 (UniProt Q9UK59)	inactive: -0.001	inactive: 0.02	inactive: -0.023	inactive: 0.05	inactive: 0.06	inactive: -0.009	inactive: 0.021	inactive: -0.067	inactive: 0.03	inactive: -0.002	inactive: 0.002	inactive: -0.017	inactive: -0.002	inactive: 0.052	inactive: -0.023	active: -0.215	inactive: 0.014	inactive: -0.012	inactive: -0.004	inactive: -0.072
CUL3 (UniProt Q13618)	inactive: -0.026	inactive: 0.03	inactive: -0.011	inactive: -0.018	inactive: -0.01	inactive: -0.013	inactive: 0.039	inactive: 0.018	inactive: 0.001	inactive: 0.045	inactive: -0.025	inactive: -0.036	inactive: -0.04	inactive: -0.015	inactive: 0.008	inactive: 0.012	inactive: 0.024	inactive: -0.007	inactive: -0.014	inactive: 0.015
DCTN3 (UniProt O75935)	inactive: 0.004	inactive: 0.013	inactive: -0.018	inactive: 0.016	inactive: -0.102	inactive: 0.025	inactive: 0.002	inactive: 0.04	inactive: 0.015	inactive: 0.019	inactive: -0.054	inactive: -0.03	inactive: -0.068	inactive: -0.049	inactive: 0.043	inactive: 0.023	inactive: 0.09	inactive: 0.048	inactive: -0.002	inactive: -0.016
CTSA (UniProt P10619)	active: -0.595	inactive: -0.04	inactive: 0.052	inactive: 0.015	inactive: 0.112	inactive: -0.001	inactive: 0.019	inactive: 0.005	inactive: 0.16	inactive: 0.007	inactive: 0.031	inactive: 0.092	inactive: -0.067	inactive: -0.013	inactive: 0.001	inactive: -0.03	inactive: -0.005	inactive: 0.044	inactive: -0.023	inactive: 0.134
DCAF16 (UniProt Q9NXF7)	inactive: -0.051	inactive: -0.056	inactive: -0.005	inactive: -0.004	inactive: -0.179	inactive: 0.005	inactive: -0.031	inactive: 0.091	inactive: -0.155	inactive: -0.085	inactive: -0.122	inactive: -0.109	inactive: -0.09	inactive: -0.036	inactive: 0.02	inactive: 0.004	inactive: 0.07	inactive: 0.082	inactive: -0.09	inactive: -0.041
DCP1A (UniProt Q9NPI6)	inactive: -0.014	inactive: 0.011	inactive: -0.139	inactive: 0.016	inactive: 0.014	inactive: -0.19	inactive: -0.214	inactive: -0.007	inactive: -0.088	inactive: -0.019	inactive: -0.157	inactive: -0.107	inactive: -0.002	inactive: -0.088	inactive: -0.133	inactive: -0.173	inactive: 0.077	inactive: 0.053	inactive: 0.021	inactive: -0.139
CUL4B (UniProt K4DI93)	inactive: -0.053	inactive: 0.01	inactive: -0.001	inactive: 0.012	inactive: -0.008	inactive: 0.001	inactive: 0.048	inactive: -0.005	inactive: -0.012	inactive: 0.011	inactive: -0.019	inactive: -0.025	inactive: -0.062	inactive: -0.015	inactive: -0.006	inactive: 0.008	inactive: 0.032	inactive: -0.031	inactive: -0.033	inactive: -0.005

Some of the entries so far, as a markdown table:

| Target | log2 fold change (bafetinib) | log2 fold change [1] | log2 fold change (nilotinib) | log2 fold change [2] | log2 fold change (dasatinib) | log2 fold change [3] | log2 fold change [4] | log2 fold change [5] | log2 fold change (tipifarnib) | log2 fold change (mubritinib) | log2 fold change [6] | log2 fold change [7] | log2 fold change [8] | log2 fold change [9] | log2 fold change (entinostat) | log2 fold change (vorinostat) | log2 fold change (citarinostat) | log2 fold change (silmitasertib) | log2 fold change [10] | log2 fold change [11] |
| --- | --- | --- | --- | --- | --- | --- | --- | --- | --- | --- | --- | --- | --- | --- | --- | --- | --- | --- | --- | --- |
| DCTN3 (UniProt O75935) | inactive: 0.004 | inactive: 0.013 | inactive: -0.018 | inactive: 0.016 | inactive: -0.102 | inactive: 0.025 | inactive: 0.002 | inactive: 0.04 | inactive: 0.015 | inactive: 0.019 | inactive: -0.054 | inactive: -0.03 | inactive: -0.068 | inactive: -0.049 | inactive: 0.043 | inactive: 0.023 | inactive: 0.09 | inactive: 0.048 | inactive: -0.002 | inactive: -0.016 |
| CTSA (UniProt P10619) | active: -0.595 | inactive: -0.04 | inactive: 0.052 | inactive: 0.015 | inactive: 0.112 | inactive: -0.001 | inactive: 0.019 | inactive: 0.005 | inactive: 0.16 | inactive: 0.007 | inactive: 0.031 | inactive: 0.092 | inactive: -0.067 | inactive: -0.013 | inactive: 0.001 | inactive: -0.03 | inactive: -0.005 | inactive: 0.044 | inactive: -0.023 | inactive: 0.134 |
